The text below walks through data of patent publication US10842874B2, “Sensitization of bacterial cells to quinolone antibiotics” (Massachusetts Institute of Technology, priority 2017, dated 2020).

Converted amounts (≈) assume the structure as drawn.

One assay relates to S. aureus. Nature of the assay: Minimum inhibitory concentration (MIC). Conditions: Staphylococcus aureus. Format: cell-based.
The subject of the next assay is E. coli strain MG1655. Nature of the assay: Minimum inhibitory concentration (MIC) in rich LB medium. Format: cell-based. As to conditions: Escherichia coli.

As to `O=C(O)c1cn(C2CC2)c2cc(N3CCNCC3)c(F)cc2c1=O` [ciprofloxacin], the figures for the MIC in the assay with S. aureus and with E. coli strain MG1655 were 250 µg/mL (≈ 754 µM) and 0.008 to 0.01 µg/mL (≈ 0.0241 to 0.0302 µM), respectively.

In general, MIC refers to the least concentration at which growth counts as inhibited.
